Results are given in words; binding and its absence hold for the method and conditions named.

Protein sequences, listed by entry. Tags and fused reporters are not part of them. Lines headed by an entry give the natural chain unless they say otherwise; changes in a name come on top. Residues count along the entry.
UniProt Q9RA63: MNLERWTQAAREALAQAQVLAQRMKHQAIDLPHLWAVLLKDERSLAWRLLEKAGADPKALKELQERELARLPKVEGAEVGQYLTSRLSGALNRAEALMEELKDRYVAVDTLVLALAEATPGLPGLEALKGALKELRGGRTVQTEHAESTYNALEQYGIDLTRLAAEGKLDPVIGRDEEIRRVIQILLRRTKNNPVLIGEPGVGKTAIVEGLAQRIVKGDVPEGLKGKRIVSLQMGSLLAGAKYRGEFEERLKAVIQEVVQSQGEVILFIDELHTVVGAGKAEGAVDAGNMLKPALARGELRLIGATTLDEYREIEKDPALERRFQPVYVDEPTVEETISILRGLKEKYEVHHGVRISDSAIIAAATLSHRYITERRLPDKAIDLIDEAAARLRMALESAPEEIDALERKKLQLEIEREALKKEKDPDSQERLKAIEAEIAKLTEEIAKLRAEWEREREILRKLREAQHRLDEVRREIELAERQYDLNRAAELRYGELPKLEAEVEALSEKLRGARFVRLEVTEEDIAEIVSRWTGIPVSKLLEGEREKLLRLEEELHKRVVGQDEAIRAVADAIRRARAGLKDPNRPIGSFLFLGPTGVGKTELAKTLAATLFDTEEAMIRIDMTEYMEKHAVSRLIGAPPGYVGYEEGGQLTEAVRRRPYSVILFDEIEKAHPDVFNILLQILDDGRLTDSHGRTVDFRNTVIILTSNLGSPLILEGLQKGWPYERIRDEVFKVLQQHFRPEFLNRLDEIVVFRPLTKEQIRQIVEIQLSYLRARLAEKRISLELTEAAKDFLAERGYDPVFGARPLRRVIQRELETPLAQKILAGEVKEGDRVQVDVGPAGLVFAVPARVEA
ΔNClpB, Thermus thermophilus ClpB lacking the N-terminal domain: residues 141-854 of Q9RA63

The target in experiment [1] is ΔNClpB, Thermus thermophilus ClpB lacking the N-terminal domain (Thermus thermophilus) (UniProt Q9RA63). Put plainly: native gel or EMSA; native polyacrylamide gel electrophoresis; ΔNClpB and the isolated NTD mixed together at 40 μM ΔNClpB and 650 μM NTD; both purified.
For experiment [2] the target is unchanged. The experiment in a line: SEC; ΔNClpB and the isolated NTD mixed together at 40 μM ΔNClpB and 650 μM NTD; both purified. (SEC sorts molecules by how far they enter the pores of the column.)

For the substance “isolated N-terminal domain of ClpB (residues 1–141) (from UniProt Q9RA63 1-141) (domain or fragment)”, the binding result in experiment [1] is “no binding (tested: 40 μM ΔNClpB and 650 μM NTD)”; in experiment [2], “no binding (tested: 40 μM ΔNClpB and 650 μM NTD)”.

For the origin of these results see PMC8056383.
